# Experimental data: PMC5539180
# These are yes or no findings as the source states them, for the method shown. Some results given as binding are weak or reduced against the parent protein; the word gives no strength.
# B1: LEUNIG (protein, UniProt Q9FUY2 1-931)
# chain: MSQTNWEADKMLDVYIHDYLVKRDLKATAQAFQAEGKVSSDPVAIDAPGGFLFEWWSVFWDIFIARTNEKHSEVAASYIETQMIKAREQQLQQSQHPQVSQQQQQQQQQQIQMQQLLLQRAQQQQQQQQQQHHHHQQQQQQQQQQQQQQQQQQQQHQNQPPSQQQQQQSTPQHQQQPTPQQQPQRRDGSHLANGSANGLVGNNSEPVMRQNPGSGSSLASKAYEERVKMPTQRESLDEAAMKRFGDNVGQLLDPSHASILKSAAASGQPAGQVLHSTSGGMSPQVQTRNQQLPGSAVDIKSEINPVLTPRTAVPEGSLIGIPGSNQGSNNLTLKGWPLTGFDQLRSGLLQQQKPFMQSQSFHQLNMLTPQHQQQLMLAQQNLNSQSVSEENRRLKMLLNNRSMTLGKDGLGSSVGDVLPNVGSSLQPGGSLLPRGDTDMLLKLKMALLQQQQQNQQQGGGNPPQPQPQPQPLNQLALTNPQPQSSNHSIHQQEKLGGGGSITMDGSISNSFRGNEQVLKNQSGRKRKQPVSSSGPANSSGTANTAGPSPSSAPSTPSTHTPGDVISMPNLPHSGGSSKSMMMFGTEGTGTLTSPSNQLADMDRFVEDGSLDDNVESFLSQEDGDQRDAVTRCMDVSKGFTFTEVNSVRASTTKVTCCHFSSDGKMLASAGHDKKAVLWYTDTMKPKTTLEEHTAMITDIRFSPSQLRLATSSFDKTVRVWDADNKGYSLRTFMGHSSMVTSLDFHPIKDDLICSCDNDNEIRYWSINNGSCTRVYKGGSTQIRFQPRVGKYLAASSANLVNVLDVETQAIRHSLQGHANPINSVCWDPSGDFLASVSEDMVKVWTLGTGSEGECVHELSCNGNKFQSCVFHPAYPSLLVIGCYQSLELWNMSENKTMTLPAHEGLITSLAVSTATGLVASASHDKLVKLWK
# Target: T1, SEUSS-LIKE 2 (Arabidopsis (accession Col-0)) (UniProt Q94BP0)
# T1 sequence: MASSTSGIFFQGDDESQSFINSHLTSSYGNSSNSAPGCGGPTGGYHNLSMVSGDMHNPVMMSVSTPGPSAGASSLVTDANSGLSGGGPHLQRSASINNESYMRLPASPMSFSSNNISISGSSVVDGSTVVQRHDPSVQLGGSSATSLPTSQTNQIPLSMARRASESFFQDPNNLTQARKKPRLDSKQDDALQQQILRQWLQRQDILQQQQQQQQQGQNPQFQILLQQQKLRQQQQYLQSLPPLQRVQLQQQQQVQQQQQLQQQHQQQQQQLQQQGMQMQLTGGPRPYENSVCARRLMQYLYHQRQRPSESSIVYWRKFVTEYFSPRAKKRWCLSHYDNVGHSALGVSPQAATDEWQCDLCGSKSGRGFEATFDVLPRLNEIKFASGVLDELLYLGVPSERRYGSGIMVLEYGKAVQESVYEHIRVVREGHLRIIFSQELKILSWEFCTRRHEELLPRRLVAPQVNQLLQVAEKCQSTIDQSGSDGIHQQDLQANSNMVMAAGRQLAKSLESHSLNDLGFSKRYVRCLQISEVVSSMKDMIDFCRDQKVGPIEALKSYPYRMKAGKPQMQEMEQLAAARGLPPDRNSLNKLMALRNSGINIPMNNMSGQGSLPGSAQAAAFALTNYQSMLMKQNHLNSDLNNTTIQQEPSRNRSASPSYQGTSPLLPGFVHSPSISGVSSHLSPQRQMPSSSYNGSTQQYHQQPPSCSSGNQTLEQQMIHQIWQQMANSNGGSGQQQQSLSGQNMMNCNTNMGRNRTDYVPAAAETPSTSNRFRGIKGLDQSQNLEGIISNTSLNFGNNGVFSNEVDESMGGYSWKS
# Experiment: two-hybrid; LexA-based yeast two-hybrid; pLexA-DBD fusions in RFY206(pSH18-34), pB42-AD fusions in EGY48, mated; LEU2 and lacZ reporters; induction medium -His/-Trp/-Ura/-Leu + X-Gal
binder,measurement,value
B1,binding,binds
